This is an account of results in article PMC7948406.

Protein sequences, listed by entry. Tags and fused reporters are not part of them.
UniProt E9Q2Z1: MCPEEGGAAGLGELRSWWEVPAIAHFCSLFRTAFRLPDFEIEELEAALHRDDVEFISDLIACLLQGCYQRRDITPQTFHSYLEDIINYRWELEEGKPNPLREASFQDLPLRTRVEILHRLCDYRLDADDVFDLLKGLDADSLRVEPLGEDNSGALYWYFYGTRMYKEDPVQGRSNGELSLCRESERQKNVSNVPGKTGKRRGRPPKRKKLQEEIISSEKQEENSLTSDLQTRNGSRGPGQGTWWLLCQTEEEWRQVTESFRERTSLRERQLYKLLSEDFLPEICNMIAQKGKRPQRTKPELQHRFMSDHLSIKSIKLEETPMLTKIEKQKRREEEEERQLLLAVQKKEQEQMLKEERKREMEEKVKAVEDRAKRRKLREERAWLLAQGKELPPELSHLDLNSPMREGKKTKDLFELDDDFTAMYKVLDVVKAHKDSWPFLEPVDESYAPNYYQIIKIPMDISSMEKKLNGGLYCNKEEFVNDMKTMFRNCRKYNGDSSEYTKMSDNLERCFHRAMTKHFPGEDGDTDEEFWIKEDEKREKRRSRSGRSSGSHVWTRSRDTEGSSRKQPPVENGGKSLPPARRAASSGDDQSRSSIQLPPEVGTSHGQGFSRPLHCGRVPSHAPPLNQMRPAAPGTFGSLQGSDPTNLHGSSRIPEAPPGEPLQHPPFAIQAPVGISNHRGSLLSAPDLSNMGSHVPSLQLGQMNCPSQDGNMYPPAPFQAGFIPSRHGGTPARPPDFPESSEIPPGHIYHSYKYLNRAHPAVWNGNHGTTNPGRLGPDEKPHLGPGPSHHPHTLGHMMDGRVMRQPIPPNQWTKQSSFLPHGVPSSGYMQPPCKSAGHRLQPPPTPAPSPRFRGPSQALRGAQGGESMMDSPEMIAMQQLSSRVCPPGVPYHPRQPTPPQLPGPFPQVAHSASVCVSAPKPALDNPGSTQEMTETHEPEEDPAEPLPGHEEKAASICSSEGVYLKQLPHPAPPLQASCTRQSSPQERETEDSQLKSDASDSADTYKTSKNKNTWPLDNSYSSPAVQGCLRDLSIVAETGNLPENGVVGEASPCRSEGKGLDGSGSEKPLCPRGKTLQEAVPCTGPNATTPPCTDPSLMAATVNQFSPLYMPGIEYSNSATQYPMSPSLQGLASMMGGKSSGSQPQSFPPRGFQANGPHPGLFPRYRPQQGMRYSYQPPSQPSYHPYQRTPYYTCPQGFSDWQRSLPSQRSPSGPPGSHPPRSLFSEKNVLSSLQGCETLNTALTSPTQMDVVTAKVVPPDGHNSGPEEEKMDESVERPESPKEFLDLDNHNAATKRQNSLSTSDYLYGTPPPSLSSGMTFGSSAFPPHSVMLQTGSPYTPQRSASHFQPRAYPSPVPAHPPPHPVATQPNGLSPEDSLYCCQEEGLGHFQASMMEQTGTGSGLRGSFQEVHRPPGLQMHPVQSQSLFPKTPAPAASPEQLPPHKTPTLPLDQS
UniProt Q6PGB8: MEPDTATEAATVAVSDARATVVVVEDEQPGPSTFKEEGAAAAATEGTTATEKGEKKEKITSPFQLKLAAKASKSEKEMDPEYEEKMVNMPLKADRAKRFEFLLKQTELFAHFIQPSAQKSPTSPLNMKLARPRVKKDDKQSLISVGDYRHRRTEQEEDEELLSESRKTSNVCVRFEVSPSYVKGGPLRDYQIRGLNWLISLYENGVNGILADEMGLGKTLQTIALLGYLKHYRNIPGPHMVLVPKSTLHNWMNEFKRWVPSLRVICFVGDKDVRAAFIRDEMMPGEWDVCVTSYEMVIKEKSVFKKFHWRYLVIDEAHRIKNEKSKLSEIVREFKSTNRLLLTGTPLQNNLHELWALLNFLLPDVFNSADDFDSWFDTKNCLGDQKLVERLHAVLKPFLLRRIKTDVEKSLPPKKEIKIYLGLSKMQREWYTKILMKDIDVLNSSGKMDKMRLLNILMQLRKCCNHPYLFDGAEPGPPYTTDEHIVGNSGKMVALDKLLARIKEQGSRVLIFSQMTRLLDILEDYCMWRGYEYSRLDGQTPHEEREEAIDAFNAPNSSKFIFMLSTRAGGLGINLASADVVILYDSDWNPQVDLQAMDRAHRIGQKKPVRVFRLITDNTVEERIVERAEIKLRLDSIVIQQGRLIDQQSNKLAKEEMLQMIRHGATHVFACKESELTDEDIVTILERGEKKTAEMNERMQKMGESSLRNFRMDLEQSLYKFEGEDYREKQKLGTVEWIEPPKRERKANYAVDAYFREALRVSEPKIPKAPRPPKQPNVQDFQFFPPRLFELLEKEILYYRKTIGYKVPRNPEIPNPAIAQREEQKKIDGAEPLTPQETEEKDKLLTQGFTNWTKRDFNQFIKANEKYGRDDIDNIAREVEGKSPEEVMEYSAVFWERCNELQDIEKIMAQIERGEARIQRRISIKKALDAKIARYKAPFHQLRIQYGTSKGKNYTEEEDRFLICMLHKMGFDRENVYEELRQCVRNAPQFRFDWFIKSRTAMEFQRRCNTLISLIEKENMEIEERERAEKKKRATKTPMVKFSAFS

Results are given in words; binding and its absence hold for the method and conditions named. In cells and extracts the contact can be indirect. Some binding calls cover weakened binding; strength is not graded here.

This assay deals with CECR2-HA (UniProt E9Q2Z1). As to the kind of experiment: co-IP; both co-expressed in Plat-E cells (results: 293 cells), lysed 36 h after transfection in 150 mM NaCl, 50 mM Tris-HCl pH 7.4, 2 mM EDTA, 1% NP-40; anti-HA beads 40 min at room temperature; blots with anti-HA and anti-FLAG.

Consider “SMARCA1-3×FLAG (from UniProt Q6PGB8 1-1046)”, for which the binding result is recorded as “binds”.
